US20260263454A1, “USES OF A CHECKPOINT KINASE 1 (CHK1) INHIBITOR” (Boundless Bio, Inc., priority 2023, published 2026)
At least one structure is not confirmed: it was looked up by name or label, or the drawing left a doubt.

Test system: ecDNA+ CDK4 amplified SJSA-1 CDX tumor model
Assay: Anti-tumor activity in ecDNA+ CDK4 amplified osteosarcoma SJSA-1 CDX model
Assay type: in vivo, Female Hsd:Athymic Nude-Foxnlnu mice
Text: Tumor volume (mm^3) data are shown as mean±SEM for each treatment group. […] PO: orally, QD: once every day, Q2D: once every other day.

[1] = abemaciclib 10.5 mg/kg orally once every day, palbociclib 20 mg/kg orally once every day

CCN1CCN(Cc2ccc(Nc3ncc(F)c(-c4cc(F)c5nc(C)n(C(C)C)c5c4)n3)nc2)CC1 [abemaciclib]
antitumor response to monotherapy (in words) [1]: marginal antitumor response

CC(=O)c1c(C)c2cnc(Nc3ccc(N4CCNCC4)cn3)nc2n(C2CCCC2)c1=O [palbociclib]
antitumor response to monotherapy (in words) (50 mg/kg orally every day): transient stasis of tumor growth followed by acquired therapeutic resistance after 15 days | antitumor response to monotherapy (in words) [1]: marginal antitumor response
